PubChem BioAssay AID493014 (National Center for Advancing Translational Sciences (NCATS), 2011)
Some of the results follow. Further columns of the screen follow, without active or inactive calls. Compounds called inactive in the main read-out are mostly missing here. Potencies come from curve fits of mixed quality, noted in brackets.

Assay: qHTS Assay to Find Inhibitors of Chronic Active B-Cell Receptor Signaling
Conditions: ABC-DLBCL IkBa-CBG/CBR reporter, luminescence ratio (green luciferase fused to IkBa over red control in TMD8 lymphoma cells), 4 h
Summary of the method: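 Cell line TMD8 (human ABC DLBCL), stably expressing tet-inducible CBG68-IkBa fusion and CBR; IMDM/0.5% FBS; cpd up to 46 uM; dox induction, 4 h, 37C/5% CO2; dual luminescence; green/red ratio; MG132 control.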

[1] = measured here: CBR red luminescence, cell number
[2] = measured here: IkBa-CBG green luminescence

| Compound | AC50 [1] | AC50 [2] |
| --- | --- | --- |
| COc1ccc(C2C(C(=O)N3CCN(c4ccccn4)CC3)CCC(=O)N2c2cc(OC)c(OC)c(OC)c2)cc1 (configuration not stated) | 8.91 µM [rising, partial curve, poor fit] |  |
| COc1ccc(S(N)(=O)=O)cc1C(=O)OCC(=O)NC(C)(C#N)C1CC1 (configuration not stated) | 29.1 µM [rising, single point] |  |
| Cc1ccc2c(c1)c1c(n2CC(O)Cn2nc(C)c(Br)c2C)CCCC1 (configuration not stated) | 18.4 µM [falling, single point] |  |
| CCCC(=O)Nc1cnc(NC(=O)c2cccc(F)c2)cc1C | 20.6 µM [falling, partial curve, poor fit] |  |
| O=C1NC(c2ccc(-c3ccccc3[N+](=O)[O-])o2)C(C(=O)c2ccc(Cl)cc2)C(O)(C(F)(F)F)N1 (configuration not stated) | 29.1 µM [falling, single point] |  |
| CCc1ccccc1NC(=O)C1CC(c2ccc(F)cc2)=NO1 (configuration not stated) | 3.55 µM [falling, partial curve, poor fit] |  |
| COc1ccc(N2C(=O)[C@@H]3[C@H](C2=O)[C@H]2c4ccccc4C=CN2[C@@H]3C(=O)Nc2ccccc2)cc1 | 0.731 µM [rising, partial curve, poor fit] |  |
| COc1ccc(C)cc1NC(=O)NNC(=O)C(C)Oc1ccc(F)cc1Cl (configuration not stated) | 5.62 µM [rising, full curve] |  |
| O=C1Oc2ccccc2C(=O)/C1=C/N1CCN(c2ccccc2F)CC1 | 5.01 µM [falling, partial curve] |  |
| O=C(CCCSc1nc2ccccc2s1)NCc1ccc2c(c1)OCO2 |  | 4.11 µM [rising, partial curve, poor fit] |
| CCN(Cc1ccccc1)S(=O)(=O)c1ccc(S(=O)(=O)N(Cc2cccc(OC)c2)CC2CCCO2)cc1 (configuration not stated) | 0.0291 µM [falling, full curve, poor fit] |  |
| CCCCN(CCCC)Cc1ccc(N)cc1 | 2.31 µM [rising, full curve, poor fit] |  |
| Cc1[nH]c2ccc(F)cc2c(=O)c1SC(F)(F)C(F)C(F)(F)F (configuration not stated) | 1.84 µM [rising, full curve, poor fit] |  |
| Cn1c(SCC(=O)N/N=C/c2ccc([N+](=O)[O-])s2)nnc1-c1ccccc1 | 32.6 µM [falling, single point] |  |
| Cc1ccc(Cc2c(C)nc3nc(SCC(=O)NCc4ccco4)nn3c2C)cc1 | 31.6 µM [rising, single point] | 25.1 µM [falling, single point] |
| CC(C)OC(=O)c1ccc(NC(=O)Cn2c(-c3nonc3N)nc3ccccc32)cc1 | 1.3 µM [rising, full curve] |  |

2 compounds drawn at random from those above:

| Compound | AC50 [1] | AC50 [2] |
| --- | --- | --- |
| CCN(Cc1ccccc1)S(=O)(=O)c1ccc(S(=O)(=O)N(Cc2cccc(OC)c2)CC2CCCO2)cc1 (configuration not stated) | 0.0291 µM [falling, full curve, poor fit] |  |
| COc1ccc(S(N)(=O)=O)cc1C(=O)OCC(=O)NC(C)(C#N)C1CC1 (configuration not stated) | 29.1 µM [rising, single point] |  |
